Source: PubChem BioAssay AID1347076 (National Center for Advancing Translational Sciences (NCATS), 2019)
About 13,000 (3.2%) of roughly 400,000 compounds were called active. The shares of active, inactive and inconclusive entries below differ from those in the screen. Calls follow the shape of the dose curve; as a rule, active = well fitted cell-killing curve with a large enough effect; inconclusive = small, poorly fitted or top-dose-only effect, or effect the other way; inactive = flat fitted curve, though single readings scatter. Potencies of inconclusive entries are doubtful fits and often do not repeat.

test: qHTS assay for MDR1-selective chemotherapeutics: Primary screen using the drug-selected MDR subline cells KB-V1; conditions: KB-V1 MDR cells viability, CellTiter-Glo, 72 h; activity change, negative = cytotoxicity: at 46.1 µM (top of the series); also: nearly all actives have a fitted effect of over 60% in size
Outline: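 KB-V1, DMEM (no phenol red) + 10% FBS; cpd pin-transferred, titration series; 72 h, 37 degrees C; CellTiter-Glo, luminescence. Data normalized, curve-fit.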
% is scaled to controls: 0 for no effect and ±100 for the full control effect; potency is read from the fitted curve at half-maximal effect.

Compound	Potency	activity change, negative = cytotoxicity
O=C(NCc1ccc(F)cc1)c1c2c(nc3ccccc13)CCC2	inconclusive: 20.6 µM [cytotoxic, single point]	–
CC(Oc1ccc(Br)cc1)C(=O)Nc1ccc(S(=O)(=O)N(C)C2CCN(C)CC2)cc1 (stereo not given)	inconclusive: 16.4 µM [cytotoxic, single point]	–
CCOC(=O)C1CCN(C(=O)c2ccc3c(=O)n4nc(Nc5ccccc5)sc4nc3c2)CC1	inactive	–
Cc1nc(NC(=O)c2ccc(Cl)cc2)sc1Cc1ccc2c(c1)OCO2	active: 4.61 µM	–
CCCN(CCC)C(=O)Cn1c(=O)n(-c2ccc(CC)cc2)c(=O)c2c3c(sc21)CCC3	inactive	–
CN1CCOc2c1cnn(CCO)c2=O	inactive	–
CCc1ccc(-c2nc(SCC(=O)c3c(N)n(C4CC4)c(=O)[nH]c3=O)n[nH]2)cc1	inconclusive: 32.6 µM [rising, single point]	–
CC(NC(=S)Nc1ccc(OC(F)F)c(Cl)c1)C(C)(C)C (stereo not given)	inconclusive: 18.4 µM [cytotoxic, single point]	–
CCN(CC)S(=O)(=O)c1cccc(C(=O)Nc2cccnc2)c1	active: 20.6 µM	–
COc1cccc(CNCCc2c[nH]c3ccccc23)c1OCc1ccccc1F	inconclusive: 18.4 µM [cytotoxic, single point]	–
COc1ccc(OC)c(Cc2nnc(CCC(=O)NC3CCCCCCC3)o2)c1	inactive	–
CC(C)CN(CCCNC(=O)CN1C(=O)COc2ccc(S(=O)(=O)N3CCCC3)cc21)CC(C)C	inactive	–
O=C(NCc1ccccc1)C1Cc2c(-c3cccc(F)c3)ccnc2O1 (stereo not given)	active: 1.46 µM	–
COc1ccc(NS(=O)(=O)c2cccc3cccnc23)cc1OC	inconclusive: 29.1 µM [cytotoxic, single point]	–
NCCCC[C@H](NC(=O)C1CCNCC1)c1nnc([C@@H](N)CO)o1	inconclusive: 32.6 µM [rising, single point]	–
O=C(CSc1nccn1Cc1ccc(F)cc1)NC1CCCC1	inconclusive: 18.4 µM [cytotoxic, single point]	–
CC1=C(C(=O)NCc2ccccc2)C(c2cccs2)n2ncnc2N1 (stereo not given)	inconclusive: 29.1 µM [rising, single point]	–
O=C(CSc1nnc(Cc2ccccc2)c(=O)[nH]1)Nc1ccccc1	inconclusive: 23.1 µM [rising, single point]	–
CC(=O)c1ccc(NC(=O)C2CCCN(S(=O)(=O)c3ccc(Br)s3)C2)cc1 (stereo not given)	inconclusive: 16.4 µM [rising, partial curve, poor fit]	–
Cc1cccc(CCNS(=O)(=O)c2ccc(S(=O)(=O)N3CCC(C)CC3)cc2)c1	inconclusive: 2.91 µM [cytotoxic, partial curve, poor fit]	–
COc1[nH]c(/N=C/c2ccco2)c(C#N)c1C#N	inactive	–
N#CC1=C(S)N(c2ccccc2)C(c2ccc(-c3cc(Cl)ccc3Cl)o2)NC1=O (stereo not given)	inconclusive: 29.1 µM [rising, single point]	–
COc1ccccc1OCCn1cc(C(=O)c2ccco2)c2ccccc21	active: 13 µM	–

Compound	Potency	activity change, negative = cytotoxicity
Cc1ccc(-c2cc(C(=O)O)c3cc(Br)ccc3n2)o1	inconclusive: 8.2 µM [cytotoxic, partial curve]	–
Cc1cc(Cl)ccc1NC(=O)CS(=O)(=O)c1cccc2nsnc12	–	inconclusive: 0%
Cc1cc(F)ccc1S(=O)(=O)N1CCCCC1CCNC(=O)C(=O)NCCN1CCOCC1 (stereo not given)	active: 16.4 µM	–
Cn1c(=O)c([N+](=O)[O-])c(NCC2CCCO2)c2ccccc21 (stereo not given)	–	inconclusive: -39.1% [cytotoxic]
COc1ncc(C2=CC(=O)CC(C)(C)C2)cn1	inactive	–
COc1cccc(S(=O)(=O)NCC(=O)Nc2ccc(C(C)(C)C)cc2)c1	active: 16.4 µM	–
Cc1ccc(C(=O)N2CCN(Cc3ccccc3)CC2)cc1S(=O)(=O)N1CCOCC1	inactive	–
Cc1cc(=O)oc2cc(OCC(=O)NCCCN3CCOCC3)c(Cl)cc12	inconclusive: 16.4 µM [cytotoxic, partial curve, poor fit]	–
C=CCC1(CC=C)CCCN1C(=O)c1ccc2oc(CCCC)nc2c1	inconclusive: 16.4 µM [cytotoxic, single point]	–
CCn1cc(CN2CCc3c([nH]c4ccccc34)C2c2ccc(F)c(OC)c2)c(C)n1 (stereo not given)	inconclusive: 16.4 µM [cytotoxic, single point]	–
COc1cccc(C(=O)Nc2ccc3[nH]ncc3c2)c1OC	inconclusive: 20.6 µM [cytotoxic, partial curve]	–
CCc1ccc(NCc2cc3ccc(OC)cc3n(CC(=O)Nc3ccccc3OC)c2=O)cc1	inconclusive: 2.06 µM [cytotoxic, partial curve, poor fit]	–
O=C(c1cn(-c2ccccc2)nc1-c1cccnc1)N1CCCC(C(F)(F)F)C1 (stereo not given)	inconclusive: 6.51 µM [cytotoxic, partial curve]	–
CCN1CCN(CC(=O)Nc2sc3c(c2C#N)CCC(C)C3)CC1 (stereo not given)	inconclusive: 23.1 µM [cytotoxic, single point]	–
CC(C)C(NS(=O)(=O)c1ccccc1F)C(=O)OCC(=O)NCc1ccco1 (stereo not given)	inactive	–
CCN(C(=O)Cn1cc(C(C)=O)c2ccccc21)c1ccccc1	inconclusive: 20.6 µM [cytotoxic, single point]	–
Cc1cccc2[nH]c(SCC(=O)O)nc12	inconclusive: 29.1 µM [rising, single point]	–
COc1ccc(NC(=O)C2CCN(S(=O)(=O)c3cccc4cccnc34)CC2)cc1	inconclusive: 20.6 µM [cytotoxic, single point]	–
Cc1cccc(-c2nnn(CC/C(N)=N/O)n2)c1	inconclusive: 29.1 µM [rising, single point]	–
COCCn1ccc2c(OCC(=O)Nc3cc(OC)ccc3OC)cccc2c1=O	inconclusive: 25.9 µM [cytotoxic, single point]	–
Cc1ccc(CSc2nc3ccncc3n2Cc2nc(-c3ccc(Cl)cc3)oc2C)cc1	inactive	–
Cc1ccc2nc(-c3ccc(NC(=O)CN4C(=O)c5ccccc5C4=O)cc3)sc2c1	inconclusive: 20.6 µM [cytotoxic, single point]	–
